Data taken from PubChem BioAssay AID1487 (National Center for Advancing Translational Sciences (NCATS), 2009).
“And” between values parts separate entries of the source, which are not always exact repeats. Equal entries are not always repeated. The list shows a part of the results. The main result of the screen is listed elsewhere. These columns were measured beside it and carry no call. Most of these compounds were active or inconclusive in the main read-out, so they are no random draw. Potencies come from curve fits of mixed quality, noted in brackets.

Assay: qHTS Assay for Modulators of Lamin A Splicing
Conditions: HeLa LMNA splicing GFP/RFP minigene ratio, 48 h
How it was run: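 S3 HeLa stable clones carrying a lamin A-EGFP splicing minigene plus DsRed2 were seeded at 600 cells/well in Opti-MEM with 2% FBS, pin-dosed and incubated 48 h at 37°C. Acumen cytometry (488 nm) gave the GFP/RFP total-intensity ratio.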

[1] = measured here: RFP viability control channel
[2] = measured here: GFP splicing reporter channel

Compound | AC50 [1] | AC50 [2]
C=C(C)c1cccc(C(C)(C)NC(=O)NC2CN3CCC2CC3)c1 (stereo not given) | 35.5 µM [rising, partial curve] | 
CC(C)(C)C(=O)OCC(=O)C1CCC2C3CCC4=CC(=O)CCC4(C)C3CCC12C (stereo not given) | 11.2 µM [rising, partial curve, poor fit] | 
CC1CC(NC(=O)C2C3CCC(O3)C2C(=O)O)CC(C)(C)C1 (stereo not given) | 35.5 µM [rising, partial curve, poor fit] | 31.6 µM [rising, single point]
CCOC(=O)c1cc2c(cn1)[nH]c1ccccc12 | 35.5 µM [falling, partial curve, poor fit] | 0.0355 µM [falling, full curve, poor fit]
NC[C@@H](CC(=O)O)c1ccc(Cl)cc1 | 2.51 µM [falling, full curve, poor fit] | 0.141 µM [falling, full curve, poor fit]
CCC(=NCCc1c[nH]c2ccccc12)c1c(O)n(C)c(=O)n(C)c1=O | 6.31 µM [rising, partial curve] | 
CC(C)c1ccc2[nH]c(O)c(N=NC(=O)c3cccc(S(=O)(=O)Nc4ccc(Cl)cc4)c3)c2c1 | 20 µM [falling, partial curve, poor fit] | 
NNC(N)=O | 5.62 µM [falling, single point] | 
CC(=O)c1ccc(Oc2nc(C)nc3c2oc2ccccc23)cc1 | 6.31 µM [falling, partial curve, poor fit] | 
COC(=O)C1=CCCN(C)C1 | 1 µM [falling, partial curve, poor fit] | 4.47 µM [rising, full curve, poor fit]
C=C(C)[C@H]1Cc2c(ccc3c2O[C@@H]2COc4cc(OC)c(OC)cc4[C@@H]2C3=O)O1 | 501 nM [rising, full curve] and 891 nM [falling, full curve] | 126 nM [rising, full curve, poor fit] and 1 µM [falling, full curve]
O=C(NC1(C(F)(F)F)Oc2ccc(Cl)cc2O1)N1CCC2(CC1)OCCO2 (stereo not given) | 17.8 µM [rising, single point] | 
N[C@@H](CCl)C(=O)O | 6.31 µM [falling, single point] | 
Fc1ccc(C(OCCN2CCN(CCCc3ccccc3)CC2)c2ccc(F)cc2)cc1 | 7.08 µM [falling, partial curve, poor fit] and 4.47 µM [falling, full curve, poor fit] | 7.94 µM [falling, partial curve] and 11.2 µM [falling, partial curve]
CC(C)(C)NCC(O)c1cc(Cl)c(N)c(Cl)c1 (stereo not given) | 10 µM [rising, single point] | 3.55 µM [falling, partial curve]
CC(C)[C@@]1(NC(=O)[C@H]2CC3c4cccc5[nH]cc(c45)C[C@H]3N(C)C2)O[C@@]2(O)C3CCCN3C(=O)[C@@H](Cc3ccccc3)N2C1=O (stereo not given in full) | 0.0631 µM [rising, full curve, poor fit] | 
O=c1[nH]c(=O)n(C2CCCCC2)c(O)c1C=Nc1ccc(N2CCOCC2)cc1 | 0.00447 µM [falling, full curve, poor fit] | 
CC(C)[C@@]1(NC(=O)[C@@H]2C[C@H]3c4cccc5[nH]cc(c45)C[C@@H]3N(C)C2)O[C@]2(O)[C@H]3CCCN3C(=O)CN2C1=O | 3.55 µM [rising, partial curve] | 
CCOC(=O)c1sc(/N=C/c2c(O)n(-c3cccc(C)c3)c(=O)[nH]c2=O)c(C#N)c1C |  | 14.1 µM [falling, single point]
CCCOP(=O)(OCCC)C(NC(=O)c1cc(OC)c(OC)c(OC)c1)c1ccccc1 (stereo not given) | 35.5 µM [rising, single point] | 2.82 µM [falling, partial curve, poor fit]
COC(=O)C[C@]1(C(=O)OC)CN(C#N)N(c2ccc(Cl)cc2)C12c1ccccc1-c1ccccc12 | 4.47 µM [falling, full curve] | 3.55 µM [falling, full curve]
COC(=O)C(c1ccccc1)N1CCCCCC1 (stereo not given) | 3.98 µM [rising, single point] | 3.98 µM [rising, partial curve]
CN1C2CCC1CC(OC(=O)c1ccc(Cl)cc1)C2 (stereo not given) | 0.0282 µM [falling, full curve, poor fit] | 0.0282 µM [falling, full curve, poor fit]
Cc1c(OCC(F)(F)F)ccnc1CS(=O)c1nc2ccccc2[nH]1 (stereo not given) | 126 nM [falling, full curve, poor fit] and 20 µM [rising, single point] | 112 nM [falling, full curve, poor fit] and 89.1 nM [falling, full curve, poor fit] and 3.98 µM [rising, partial curve, poor fit]
COc1ccc2c(c1OC)CN1CCc3cc4c(cc3[C@H]1C2)OCO4 | 0.355 µM [falling, full curve, poor fit] | 0.631 µM [falling, full curve, poor fit]
Nc1nc(F)nc2c1ncn2[C@@H]1O[C@H](CO)[C@@H](O)[C@@H]1O | 35.5 µM [rising, single point] | 31.6 µM [rising, single point]
CCOP(=O)(OCC)C(NC(=O)Nc1ccc(C)c(Cl)c1)c1ccccc1 (stereo not given) | 20 µM [rising, single point] | 15.8 µM [rising, single point]
CCCCCn1c(=O)c(C(=O)Nc2c(C)n(C)n(-c3ccccc3)c2=O)c(O)c2ccccc21 |  | 7.08 µM [falling, partial curve]
CCc1ccccc1NC(=O)C(CC)Oc1ccccc1-c1nnc(-c2ccccc2)o1 (stereo not given) | 0.00501 µM [falling, full curve, poor fit] | 0.00891 µM [falling, full curve, poor fit]

Copied from above for reference:
Compound | AC50 [1] | AC50 [2]
COC(=O)C[C@]1(C(=O)OC)CN(C#N)N(c2ccc(Cl)cc2)C12c1ccccc1-c1ccccc12 | 4.47 µM [falling, full curve] | 3.55 µM [falling, full curve]
COC(=O)C(c1ccccc1)N1CCCCCC1 (stereo not given) | 3.98 µM [rising, single point] | 3.98 µM [rising, partial curve]
